No constants are given. Whether binding was seen depends on the method and setting. Binding seen in cells or lysates may run through a third protein. These calls come from enrichment with a bait or labelling near it, and not all partners need be listed. Where a sequence is shown, tags or fusion partners need not be part of it.
Target: T1, NUCB2-Flag (nucleobindin-2, Flag-tagged, from plasmid pc-NUCB2-Flag) (UniProt P80303)
T1 sequence: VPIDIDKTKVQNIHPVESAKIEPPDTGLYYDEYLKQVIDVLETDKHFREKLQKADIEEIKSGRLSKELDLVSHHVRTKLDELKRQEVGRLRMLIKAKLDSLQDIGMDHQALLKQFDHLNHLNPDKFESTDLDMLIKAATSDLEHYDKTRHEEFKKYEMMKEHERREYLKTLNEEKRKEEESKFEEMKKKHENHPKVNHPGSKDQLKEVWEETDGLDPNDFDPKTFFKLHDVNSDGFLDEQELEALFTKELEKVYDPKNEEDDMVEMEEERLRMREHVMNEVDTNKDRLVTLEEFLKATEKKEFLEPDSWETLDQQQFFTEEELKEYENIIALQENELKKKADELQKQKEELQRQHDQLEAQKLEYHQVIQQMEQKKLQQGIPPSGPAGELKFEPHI
Experiment: affinity purification with mass spectrometry; STC-1 cells transfected with pc-NUCB2-Flag or empty vector for 48 h; lysate precipitated with anti-Flag antibody; SDS-PAGE bands analysed by LC-MS

Protein sequences, listed by entry. Tags and fused reporters are not part of them.
UniProt P56450: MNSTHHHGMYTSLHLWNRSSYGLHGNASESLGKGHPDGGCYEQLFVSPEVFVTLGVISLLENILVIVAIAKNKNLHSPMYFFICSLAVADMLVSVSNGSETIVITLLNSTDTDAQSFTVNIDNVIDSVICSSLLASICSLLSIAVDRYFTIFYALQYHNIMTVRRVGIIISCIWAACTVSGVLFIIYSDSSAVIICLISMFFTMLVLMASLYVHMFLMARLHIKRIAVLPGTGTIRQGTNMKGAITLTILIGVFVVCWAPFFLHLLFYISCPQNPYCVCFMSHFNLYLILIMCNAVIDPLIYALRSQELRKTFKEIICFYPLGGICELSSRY

binding: binds
Substance: endogenous MC4R of STC-1 cells (from UniProt P56450 1-332) (receptor)
